Earlier results in US11634479B2, “Immunoassay for collagen type VI” (Nordic Bioscience A/S, priority 2015, dated 2023).
For at least one compound, name, drawing or mass did not settle the structure.

System: procollagen α3(VI) mRNA
Conditions: patients with type 2 diabetes; especially with high baseline tissue levels of procollagen α3(VI) mRNA; cited from earlier work

SMILES: CCc1ccc(CCOc2ccc(CC3SC(=O)NC3=O)cc2)nc1 (stereo not shown) [Pioglitazone, pioglitazone]
- procollagen α3(VI) transcripts in subcutaneous adipose tissue: decrease
